Reference: the supplement of paper PMC10849652
The other results are listed elsewhere or left out. Residues, ends and D or L forms follow the SMILES beside them. *: point of attachment. Cbz = O=C(OCc1ccccc1)*

By UniProt entry, the sequences of proteins in these tests, tags left out. Where a name states a change or a piece, a line headed by the entry shows the natural chain unless it says otherwise.
UniProt Q8N0Y2: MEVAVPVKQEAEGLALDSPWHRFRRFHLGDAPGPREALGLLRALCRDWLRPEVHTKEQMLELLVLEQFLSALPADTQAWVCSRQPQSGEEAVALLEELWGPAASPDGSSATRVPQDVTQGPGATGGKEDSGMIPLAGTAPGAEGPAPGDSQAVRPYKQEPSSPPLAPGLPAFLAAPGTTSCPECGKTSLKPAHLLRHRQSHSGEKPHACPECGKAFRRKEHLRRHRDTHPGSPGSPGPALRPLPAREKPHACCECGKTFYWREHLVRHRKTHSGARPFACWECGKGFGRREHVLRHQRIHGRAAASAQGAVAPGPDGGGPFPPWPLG
UniProt Q8NB15: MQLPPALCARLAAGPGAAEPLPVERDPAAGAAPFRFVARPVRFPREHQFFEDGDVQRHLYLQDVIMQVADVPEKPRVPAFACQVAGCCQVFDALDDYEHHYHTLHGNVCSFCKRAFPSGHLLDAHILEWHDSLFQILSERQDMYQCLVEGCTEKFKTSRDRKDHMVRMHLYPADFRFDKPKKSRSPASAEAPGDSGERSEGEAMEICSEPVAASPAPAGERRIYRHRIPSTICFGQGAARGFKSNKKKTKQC
UniProt Q9UK33: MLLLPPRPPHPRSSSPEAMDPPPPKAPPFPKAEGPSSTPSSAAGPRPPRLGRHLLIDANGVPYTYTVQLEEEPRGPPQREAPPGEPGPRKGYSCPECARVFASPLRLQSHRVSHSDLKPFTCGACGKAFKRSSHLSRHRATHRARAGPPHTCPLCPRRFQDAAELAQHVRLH
UniProt O00488: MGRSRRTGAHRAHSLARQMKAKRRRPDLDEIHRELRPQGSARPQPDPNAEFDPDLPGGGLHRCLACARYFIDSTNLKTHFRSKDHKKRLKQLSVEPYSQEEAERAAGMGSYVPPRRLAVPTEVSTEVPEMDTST
UniProt Q86UK7: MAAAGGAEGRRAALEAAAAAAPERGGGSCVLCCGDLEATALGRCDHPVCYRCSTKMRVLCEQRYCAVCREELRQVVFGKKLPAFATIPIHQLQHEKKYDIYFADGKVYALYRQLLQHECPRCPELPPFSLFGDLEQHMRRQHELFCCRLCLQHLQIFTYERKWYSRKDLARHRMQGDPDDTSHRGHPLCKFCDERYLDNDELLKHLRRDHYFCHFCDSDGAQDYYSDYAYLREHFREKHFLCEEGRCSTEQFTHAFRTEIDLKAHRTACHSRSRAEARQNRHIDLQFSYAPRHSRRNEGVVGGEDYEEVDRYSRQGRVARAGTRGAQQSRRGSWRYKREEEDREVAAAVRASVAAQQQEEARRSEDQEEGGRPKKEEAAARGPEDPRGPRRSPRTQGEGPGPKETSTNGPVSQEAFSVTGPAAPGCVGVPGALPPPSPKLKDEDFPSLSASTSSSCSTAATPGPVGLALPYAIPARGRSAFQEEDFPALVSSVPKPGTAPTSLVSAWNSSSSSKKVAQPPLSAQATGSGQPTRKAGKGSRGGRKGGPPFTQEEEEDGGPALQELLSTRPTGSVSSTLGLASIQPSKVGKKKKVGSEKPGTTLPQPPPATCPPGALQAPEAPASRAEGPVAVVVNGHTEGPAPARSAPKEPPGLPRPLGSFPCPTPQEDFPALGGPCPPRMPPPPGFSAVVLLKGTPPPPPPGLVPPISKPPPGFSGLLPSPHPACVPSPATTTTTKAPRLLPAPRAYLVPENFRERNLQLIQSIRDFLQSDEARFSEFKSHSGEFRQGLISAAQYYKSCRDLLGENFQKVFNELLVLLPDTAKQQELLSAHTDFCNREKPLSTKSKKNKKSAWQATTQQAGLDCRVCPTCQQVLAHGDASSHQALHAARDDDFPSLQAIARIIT
UniProt Q5T7W0: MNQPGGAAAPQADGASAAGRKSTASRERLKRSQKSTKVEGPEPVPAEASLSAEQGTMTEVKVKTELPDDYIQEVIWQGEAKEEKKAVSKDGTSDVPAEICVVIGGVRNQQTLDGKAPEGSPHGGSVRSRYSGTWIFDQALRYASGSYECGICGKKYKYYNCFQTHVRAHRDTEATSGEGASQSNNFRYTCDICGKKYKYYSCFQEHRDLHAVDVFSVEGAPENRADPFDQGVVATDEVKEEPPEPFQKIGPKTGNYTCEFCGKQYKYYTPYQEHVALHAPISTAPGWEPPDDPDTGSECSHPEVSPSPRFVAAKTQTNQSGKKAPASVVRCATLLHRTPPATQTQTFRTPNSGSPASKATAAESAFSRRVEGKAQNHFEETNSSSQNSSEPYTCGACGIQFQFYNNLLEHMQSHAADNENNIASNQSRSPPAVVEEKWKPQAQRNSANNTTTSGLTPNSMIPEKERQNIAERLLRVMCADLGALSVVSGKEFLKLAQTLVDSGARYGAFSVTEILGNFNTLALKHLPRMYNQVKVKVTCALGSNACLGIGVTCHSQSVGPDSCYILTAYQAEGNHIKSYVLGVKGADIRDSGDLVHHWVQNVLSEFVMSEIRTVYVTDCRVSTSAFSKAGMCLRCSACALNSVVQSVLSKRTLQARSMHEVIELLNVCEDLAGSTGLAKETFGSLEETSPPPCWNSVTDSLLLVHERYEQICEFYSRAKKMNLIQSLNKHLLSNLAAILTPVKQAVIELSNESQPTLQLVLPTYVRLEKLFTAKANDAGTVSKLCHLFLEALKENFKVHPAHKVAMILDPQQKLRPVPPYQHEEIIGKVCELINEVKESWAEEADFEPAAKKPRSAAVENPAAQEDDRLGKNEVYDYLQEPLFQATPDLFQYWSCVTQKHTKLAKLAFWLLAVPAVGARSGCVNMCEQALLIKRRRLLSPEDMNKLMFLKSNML
UniProt Q969S3: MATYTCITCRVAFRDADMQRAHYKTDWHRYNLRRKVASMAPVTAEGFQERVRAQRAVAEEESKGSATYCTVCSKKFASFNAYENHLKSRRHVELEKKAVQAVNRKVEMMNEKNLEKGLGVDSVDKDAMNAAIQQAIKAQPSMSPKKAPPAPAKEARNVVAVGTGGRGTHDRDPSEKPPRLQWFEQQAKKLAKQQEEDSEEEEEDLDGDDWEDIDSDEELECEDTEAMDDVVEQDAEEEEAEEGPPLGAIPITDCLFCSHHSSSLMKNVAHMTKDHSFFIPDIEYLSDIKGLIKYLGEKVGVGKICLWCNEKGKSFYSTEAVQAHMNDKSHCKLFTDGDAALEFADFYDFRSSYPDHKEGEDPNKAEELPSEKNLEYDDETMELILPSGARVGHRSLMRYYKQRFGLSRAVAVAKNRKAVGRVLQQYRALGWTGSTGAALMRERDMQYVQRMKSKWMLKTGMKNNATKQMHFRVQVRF
UniProt Q9UEG4: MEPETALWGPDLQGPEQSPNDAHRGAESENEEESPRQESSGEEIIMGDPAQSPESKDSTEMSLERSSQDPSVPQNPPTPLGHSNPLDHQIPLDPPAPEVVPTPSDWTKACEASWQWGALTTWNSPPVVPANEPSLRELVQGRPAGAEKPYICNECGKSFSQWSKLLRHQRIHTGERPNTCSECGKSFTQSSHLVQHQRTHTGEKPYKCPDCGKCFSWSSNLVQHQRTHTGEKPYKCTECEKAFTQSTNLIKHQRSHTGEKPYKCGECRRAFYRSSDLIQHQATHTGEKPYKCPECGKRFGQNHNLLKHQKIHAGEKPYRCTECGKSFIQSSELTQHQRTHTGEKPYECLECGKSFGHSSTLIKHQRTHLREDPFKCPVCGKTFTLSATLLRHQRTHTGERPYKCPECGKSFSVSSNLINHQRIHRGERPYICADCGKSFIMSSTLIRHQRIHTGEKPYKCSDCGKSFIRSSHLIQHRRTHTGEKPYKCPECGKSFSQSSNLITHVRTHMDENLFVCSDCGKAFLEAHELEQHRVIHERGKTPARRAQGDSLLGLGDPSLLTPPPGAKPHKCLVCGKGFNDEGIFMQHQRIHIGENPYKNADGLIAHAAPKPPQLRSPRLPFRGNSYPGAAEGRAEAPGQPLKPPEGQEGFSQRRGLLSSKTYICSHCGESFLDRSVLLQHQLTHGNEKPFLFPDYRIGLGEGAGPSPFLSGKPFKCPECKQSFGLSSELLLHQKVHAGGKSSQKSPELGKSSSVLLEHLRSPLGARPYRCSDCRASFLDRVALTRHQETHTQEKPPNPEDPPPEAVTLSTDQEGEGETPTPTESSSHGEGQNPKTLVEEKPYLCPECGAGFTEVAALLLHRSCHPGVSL
UniProt Q14966: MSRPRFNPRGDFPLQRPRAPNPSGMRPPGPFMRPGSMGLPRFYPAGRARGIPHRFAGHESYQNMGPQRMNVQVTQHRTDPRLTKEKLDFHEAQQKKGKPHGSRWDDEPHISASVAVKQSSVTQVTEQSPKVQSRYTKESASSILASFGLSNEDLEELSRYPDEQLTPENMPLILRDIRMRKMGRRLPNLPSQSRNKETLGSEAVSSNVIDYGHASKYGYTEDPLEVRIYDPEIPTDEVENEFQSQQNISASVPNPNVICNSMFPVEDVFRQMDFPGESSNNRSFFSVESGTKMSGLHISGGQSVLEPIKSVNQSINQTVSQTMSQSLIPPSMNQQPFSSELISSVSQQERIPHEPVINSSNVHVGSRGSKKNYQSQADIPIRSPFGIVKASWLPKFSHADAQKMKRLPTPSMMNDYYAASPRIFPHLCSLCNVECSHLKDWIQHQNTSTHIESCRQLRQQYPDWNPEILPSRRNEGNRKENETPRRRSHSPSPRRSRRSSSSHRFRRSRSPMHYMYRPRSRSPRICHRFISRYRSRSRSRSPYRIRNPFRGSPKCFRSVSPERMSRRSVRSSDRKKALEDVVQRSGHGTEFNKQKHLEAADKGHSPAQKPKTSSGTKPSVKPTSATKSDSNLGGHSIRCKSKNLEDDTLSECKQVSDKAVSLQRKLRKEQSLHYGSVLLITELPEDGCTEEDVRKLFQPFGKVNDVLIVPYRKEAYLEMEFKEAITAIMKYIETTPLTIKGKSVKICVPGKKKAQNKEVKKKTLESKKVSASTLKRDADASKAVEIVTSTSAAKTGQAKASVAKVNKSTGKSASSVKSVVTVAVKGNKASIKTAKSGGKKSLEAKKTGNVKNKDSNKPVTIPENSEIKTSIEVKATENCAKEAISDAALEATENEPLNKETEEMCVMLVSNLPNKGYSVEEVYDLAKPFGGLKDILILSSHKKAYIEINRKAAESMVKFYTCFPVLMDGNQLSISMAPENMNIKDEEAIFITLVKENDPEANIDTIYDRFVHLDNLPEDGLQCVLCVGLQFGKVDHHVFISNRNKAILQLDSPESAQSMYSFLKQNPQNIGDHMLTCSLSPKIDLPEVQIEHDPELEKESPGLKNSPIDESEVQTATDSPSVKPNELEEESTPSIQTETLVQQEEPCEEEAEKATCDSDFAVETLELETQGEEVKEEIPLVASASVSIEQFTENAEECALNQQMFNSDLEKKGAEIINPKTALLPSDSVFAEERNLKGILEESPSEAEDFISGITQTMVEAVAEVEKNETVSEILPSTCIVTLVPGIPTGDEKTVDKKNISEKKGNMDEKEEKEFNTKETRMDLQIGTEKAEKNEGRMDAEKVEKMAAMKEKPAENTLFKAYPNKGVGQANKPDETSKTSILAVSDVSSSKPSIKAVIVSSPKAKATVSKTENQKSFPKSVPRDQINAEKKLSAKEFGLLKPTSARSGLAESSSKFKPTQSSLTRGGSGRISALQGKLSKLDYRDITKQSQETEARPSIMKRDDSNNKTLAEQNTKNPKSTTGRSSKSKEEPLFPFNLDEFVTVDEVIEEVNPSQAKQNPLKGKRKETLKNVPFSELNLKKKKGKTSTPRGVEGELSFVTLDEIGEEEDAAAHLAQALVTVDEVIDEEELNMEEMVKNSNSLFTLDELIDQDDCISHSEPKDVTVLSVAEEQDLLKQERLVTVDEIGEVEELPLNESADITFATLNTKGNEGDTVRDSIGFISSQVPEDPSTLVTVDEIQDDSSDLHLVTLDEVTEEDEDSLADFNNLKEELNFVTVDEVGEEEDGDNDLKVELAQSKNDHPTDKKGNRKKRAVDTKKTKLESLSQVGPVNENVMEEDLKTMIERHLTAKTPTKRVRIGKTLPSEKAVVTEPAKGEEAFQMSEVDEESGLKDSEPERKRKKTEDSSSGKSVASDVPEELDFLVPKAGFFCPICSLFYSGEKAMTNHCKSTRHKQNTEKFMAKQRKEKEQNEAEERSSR
UniProt Q9P0T4: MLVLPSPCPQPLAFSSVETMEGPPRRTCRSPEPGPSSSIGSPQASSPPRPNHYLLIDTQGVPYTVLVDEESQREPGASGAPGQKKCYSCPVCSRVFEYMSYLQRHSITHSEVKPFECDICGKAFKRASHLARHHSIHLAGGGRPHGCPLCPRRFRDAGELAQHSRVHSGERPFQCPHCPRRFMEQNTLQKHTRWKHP

Tests used:
Experiment in all cases: log2 fold change, soluble protein after heating vs DMSO (PISA); higher = thermal stabilisation; K562 cells, 10 uM, 30 min; active = over 0.2 and 3.5 SD of the protein, either way, in both replicates (recomputed)
[1] = target: ZNF428 (UniProt M0QXZ5)
How it was run: (§1)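 Values are thermal stability changes relative to control samples and are taken from duplicates. They are stated as log2 fold changes. Before quantification by TMTpro 16plex LC-MS/MS with equalised channel sums, K562 cells at 2×10^6 cells/mL were treated with 10 μM compound for 30 min, heated in aliquots for 3 min across 48°C-58°C, pooled, extracted in PBS with 0.5% NP-40 at 4°C, and centrifuged at 21,000xg for 90 min to give the soluble supernatant.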

[2] = target: ZNF444 (UniProt Q8N0Y2)
How it was run: as §1

[3] = target: ZNF511 isoform 1 (UniProt Q8NB15)
How it was run: as §1

[4] = target: ZNF579 (UniProt Q8NAF0)
How it was run: as §1

[5] = target: ZNF580 (UniProt Q9UK33)
How it was run: as §1

[6] = target: ZNF593 (UniProt O00488)
How it was run: as §1

[7] = target: ZNF598 (UniProt Q86UK7)
How it was run: as §1

[8] = target: ZNF609 (UniProt O15014)
How it was run: as §1

[9] = target: ZNF618 (UniProt Q5T7W0)
How it was run: as §1

[10] = target: ZNF618 isoform 2 (UniProt Q5T7W0)
How it was run: as §1

[11] = target: ZNF622 (UniProt Q969S3)
How it was run: as §1

[12] = target: ZNF629 (UniProt Q9UEG4)
How it was run: as §1

[13] = target: ZNF638 (UniProt Q14966)
How it was run: as §1

[14] = target: ZNF639 (UniProt Q9UID6)
How it was run: as §1

[15] = target: ZNF512 (UniProt Q96ME7)
How it was run: as §1

[16] = target: ZNF581 (UniProt Q9P0T4)
How it was run: as §1

[17] = target: ZNF618 (UniProt B1ALC2)
How it was run: as §1

[18] = target: ZNF512B (UniProt Q96KM6)
How it was run: as §1

[19] = target: ZNF451 (UniProt Q9Y4E5)
How it was run: as §1

Measured: log2 fold change

CS(=O)(=O)c1ccc(-c2cnc(N)c(C(=O)Nc3ccccc3)n2)cc1
inactive: [1] -0.106 | [2] -0.02 | [3] -0.022 | [4] 0.019 | [5] -0.231 | [6] -0.029 | [7] -0.008 | [8] 0.021 | [9] -0.05 | [10] -0.082 | [11] 0.066 | [12] -0.019 | [13] -0.033 | [14] -0.075

O=C1c2ccccc2-c2n[nH]c3cccc1c23
inactive: [1] 0.035 | [2] 0.115 | [3] 0.041 | [15] 0.161 | [4] 0.279 | [16] 0.034 | [6] -0.097 | [7] 0.025 | [8] 0.002 | [9] -0.036 | [11] 0.042 | [12] -0.011 | [13] -0.037 | [14] -0.108

CON(C)C(=O)N1N=C(c2cc(F)ccc2F)S[C@@]1(CCCN)c1ccccc1 [filanesib]
inactive: [1] -0.022 | [2] 0.228 | [3] 0.019 | [4] 0.181 | [5] 0.152 | [6] 0.287 | [7] 0.033 | [8] 0.049 | [9] -0.024 | [10] 0.135 | [11] -0.101 | [12] 0.243 | [13] 0.086 | [14] -0.016

COc1cc2nc(-c3cc(F)ccc3O)nc(N[C@@H]3CNC[C@H]3C(C)(C)O)c2cc1OC
inactive: [1] -0.061 | [2] 0.01 | [3] -0.013 | [4] 0.042 | [5] 0.093 | [6] -0.213 | [7] 0.02 | [8] 0.205 | [9] -0.025 | [10] -0.081 | [11] 0.028 | [12] -0.018

CN(C)CC(=O)Nc1ccc2[nH]c(=O)c3ccccc3c2c1
inactive: [1] -0.102 | [2] 0.195 | [3] 0.068 | [4] -0.026 | [5] 0.046 | [6] -0.118 | [7] 0.077 | [8] 0.047 | [9] 0.001 | [10] -0.061 | [11] -0.024 | [12] -0.18 | [13] -0.05 | [14] 0.063

NCC(=O)Nc1ccc(-n2nc(C(F)(F)F)cc2-c2ccc3c(ccc4ccccc43)c2)cc1
inactive: [1] -0.008 | [2] 0.06 | [3] -0.005 | [4] 0.085 | [5] -0.038 | [6] 0.123 | [7] -0.069 | [8] -0.076 | [9] 0.019 | [10] 0.16 | [11] -0.016 | [12] 0.121 | [13] 0.101 | [14] 0

CN1CCN(c2nc(C3=C(c4c[nH]c5ccccc45)C(=O)NC3=O)c3ccccc3n2)CC1 [sotrastaurin]
inactive: [1] -0.027 | [2] -0.007 | [3] 0.001 | [4] 0.014 | [5] 0.039 | [6] 0.047 | [7] -0.065 | [8] 0.016 | [9] 0.059 | [10] -0.029 | [11] 0.018 | [12] 0 | [13] 0.022 | [14] 0.164

COC(=O)[C@H](CCSC)NC(=O)c1ccc(NC[C@@H](N)CS)cc1-c1ccccc1
inactive: [1] 0.065 | [2] 0.015 | [3] -0.201 | [4] -0.012 | [5] -0.082 | [6] -0.003 | [7] -0.016 | [8] 0.019 | [9] 0.063 | [10] 0.062 | [11] 0.005 | [12] 0.026 | [13] 0.082 | [14] -0.166

CCCS(=O)(=O)Nc1ccc(F)c(C(=O)c2c[nH]c3ncc(Cl)cc23)c1F
inactive: [1] -0.029 | [2] 0.069 | [3] 0.014 | [4] -0.085 | [5] 0.069 | [6] -0.201 | [7] 0.07 | [8] 0.036 | [9] -0.001 | [10] 0.033 | [11] 0.023 | [12] -0.114

C[C@@H](N)c1ccc(C(=O)Nc2ccnc3[nH]ccc23)cc1
inactive: [1] -0.133 | [2] 0.132 | [3] -0.105 | [15] 0.45 | [4] 0.102 | [16] 0.222 | [6] 0.339 | [7] 0.049 | [8] 0.033 | [17] -0.319 | [9] -0.001 | [11] 0 | [12] 0.257 | [13] -0.053

COc1cc(C(=O)O)ccc1NC(=O)[C@@H]1N[C@@H](CC(C)(C)C)[C@](C#N)(c2ccc(Cl)cc2F)[C@H]1c1cccc(Cl)c1F [idasanutlin]
inactive: [1] 0.092 | [2] -0.025 | [3] 0.128 | [15] 0.3 | [4] -0.116 | [16] 0.229 | [6] 0.134 | [7] 0.08 | [8] 0.021 | [9] 0.015 | [11] -0.031 | [12] 0.219 | [13] 0.093 | [14] 0.098

CNC(=O)c1ccc(Nc2ncc(C(F)(F)F)c(NCc3nccnc3N(C)S(C)(=O)=O)n2)cc1 [defactinib]
inactive: [1] -0.033 | [2] 0.301 | [3] -0.128 | [4] 0.019 | [5] -0.099 | [6] 0.23 | [7] -0.057 | [8] -0.046 | [9] -0.044 | [10] 0.099 | [11] 0.057 | [12] 0.232 | [13] -0.14 | [14] -0.371

NC(=O)Nc1cc(-c2cccc(F)c2)sc1C(=O)N[C@H]1CCCNC1
inactive: [1] 0.112 | [2] -0.007 | [3] 0.007 | [4] -0.008 | [5] 0.123 | [6] -0.071 | [7] 0.001 | [8] 0.061 | [9] -0.065 | [10] 0.105 | [11] -0.028 | [12] 0.142 | [13] 0.029 | [14] 0.067

Fetched by structure from the entries so far, two records:
COc1cc(C(=O)O)ccc1NC(=O)[C@@H]1N[C@@H](CC(C)(C)C)[C@](C#N)(c2ccc(Cl)cc2F)[C@H]1c1cccc(Cl)c1F [idasanutlin]
inactive: [1] 0.092 | [2] -0.025 | [3] 0.128 | [15] 0.3 | [4] -0.116 | [16] 0.229 | [6] 0.134 | [7] 0.08 | [8] 0.021 | [9] 0.015 | [11] -0.031 | [12] 0.219 | [13] 0.093 | [14] 0.098

C[C@@H](N)c1ccc(C(=O)Nc2ccnc3[nH]ccc23)cc1
inactive: [1] -0.133 | [2] 0.132 | [3] -0.105 | [15] 0.45 | [4] 0.102 | [16] 0.222 | [6] 0.339 | [7] 0.049 | [8] 0.033 | [17] -0.319 | [9] -0.001 | [11] 0 | [12] 0.257 | [13] -0.053

Next part:

CC(C)C[C@@H](C=O)NC(=O)[C@H](CC(C)C)NC(=O)[C@H](CC(C)C)NC(=O)OCc1ccccc1 (Cbz-Leu-Leu-Leu-aldehyde)
inactive: [1] -0.049 | [3] 0.195 | [18] 0.184 | [4] -0.271 | [6] 0.129 | [7] 0.005 | [8] 0.031 | [9] 0.052 | [10] 0.273 | [11] -0.036 | [12] 0.173 | [13] 0.067

O=C(O)c1ccc2c(c1)nc(Nc1cccc(Cl)c1)c1ccncc12 [silmitasertib]
inactive: [1] 0.012 | [19] 0.354 | [3] 0.076 | [15] 0.234 | [18] 0.217 | [4] -0.016 | [16] 0.051 | [6] 0.041 | [7] 0.007 | [8] 0.02 | [17] 0.153 | [9] -0.004 | [10] -0.087 | [11] -0.058 | [12] 0.124 | [13] 0.003

O=C(CCCCCCNC(=O)c1cnc(N(c2ccccc2)c2ccccc2Cl)nc1)NO [citarinostat]
inactive: [1] -0.066 | [3] 0.054 | [4] -0.089 | [5] -0.013 | [6] -0.077 | [7] 0.039 | [8] 0.083 | [9] 0.041 | [10] 0.071 | [11] -0.011 | [12] -0.117 | [13] 0.021 | [14] 0.152

O=C1NC(=O)C(c2cnc3ccccn23)=C1c1cn2c3c(cc(F)cc13)CN(C(=O)N1CCCCC1)CC2
active: [8] -0.571
inactive: [1] -0.051 | [19] -0.179 | [3] -0.095 | [15] -0.023 | [18] 0.201 | [4] 0.038 | [6] 0.08 | [7] -0.03 | [9] -0.063 | [10] -0.012 | [11] 0.043 | [12] 0.167 | [13] -0.044

NC1(Cc2ccc(Cl)cc2)CCN(c2ncnc3[nH]ccc23)CC1
inactive: [1] 0.022 | [3] 0.079 | [4] -0.064 | [5] 0.183 | [6] -0.093 | [7] 0.08 | [8] -0.115 | [9] 0.072 | [10] 0.025 | [12] 0.006 | [13] -0.014 | [14] -0.017
active: [11] -0.263

COc1cc2ncnc(Nc3ccc(F)c(Cl)c3)c2cc1OCCCN1CCOCC1 [gefitinib]
inactive: [1] 0.022 | [3] -0.192 | [15] -0.02 | [4] 0.111 | [6] -0.073 | [7] -0.044 | [8] -0.069 | [17] 0.054 | [9] -0.016 | [11] 0 | [12] 0.038

CC(C)(C)Cn1c(N)nc2ccc(-c3[nH]c(C(C)(C)C)nc3-c3ccc(F)cc3)nc21 [ralimetinib]
inactive: [1] 0.174 | [3] 0.074 | [18] 0.266 | [4] 0.032 | [6] 0.11 | [7] 0.126 | [8] -0.053 | [9] 0.044 | [10] -0.001 | [11] -0.019 | [12] 0.103 | [13] 0.046
